These are yes or no findings as the source states them, for the method shown. Binding can be weak; no strength is given.

This test addresses T1, AtBIN2 (brassinosteroid-insensitive 2) in pGBKT7 (pGBKT7-AtBIN2) (Arabidopsis thaliana) (UniProt Q39011).
T1 sequence: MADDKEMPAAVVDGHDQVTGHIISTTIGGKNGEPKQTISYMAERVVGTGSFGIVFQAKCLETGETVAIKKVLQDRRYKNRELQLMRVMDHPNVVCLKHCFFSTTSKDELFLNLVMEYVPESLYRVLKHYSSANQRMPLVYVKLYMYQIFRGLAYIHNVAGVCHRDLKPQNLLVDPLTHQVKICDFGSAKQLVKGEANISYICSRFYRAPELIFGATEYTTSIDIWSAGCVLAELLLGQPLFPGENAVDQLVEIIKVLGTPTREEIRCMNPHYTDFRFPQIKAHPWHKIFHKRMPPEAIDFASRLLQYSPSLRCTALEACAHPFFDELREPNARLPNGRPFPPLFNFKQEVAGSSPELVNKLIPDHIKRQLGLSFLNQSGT
In words: two-hybrid; yeast strain AH109 co-transformed with pGBKT7 and pGADT7 fusions; growth on dropout medium lacking tryptophan, leucine, histidine and adenine with 3-AT (15 mM in results and legend, 5 mM in methods) and X-α-Gal (blue colour).

Take “SPLCV-JS C4 protein in pGADT7 (pGADT7-C4)”: the binding entry is “binds”.

The record behind these values is publication PMC5623726.
